Primary screen of a compound library

Chains of the proteins cited; added tags and fusions are not shown. Residues count along the entry.
UniProt Q4DA54, 1-478: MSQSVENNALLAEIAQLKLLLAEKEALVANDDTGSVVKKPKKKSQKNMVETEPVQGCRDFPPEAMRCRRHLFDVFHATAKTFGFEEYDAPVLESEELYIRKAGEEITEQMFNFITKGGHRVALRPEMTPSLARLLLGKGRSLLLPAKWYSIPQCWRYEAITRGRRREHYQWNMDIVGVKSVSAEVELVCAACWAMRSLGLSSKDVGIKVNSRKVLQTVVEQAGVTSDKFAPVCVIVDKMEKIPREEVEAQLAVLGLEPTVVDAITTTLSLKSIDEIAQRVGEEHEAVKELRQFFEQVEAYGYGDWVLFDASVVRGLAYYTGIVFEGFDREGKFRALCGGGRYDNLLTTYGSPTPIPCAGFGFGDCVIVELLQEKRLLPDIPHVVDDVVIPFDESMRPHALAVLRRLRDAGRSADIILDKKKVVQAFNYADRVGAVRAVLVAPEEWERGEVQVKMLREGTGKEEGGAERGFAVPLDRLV

Measurements from “University of Dundee, Small-Polar-MMV Screening Library” (2021), ChEMBL document CHEMBL3988442.

Toxoplasma: 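Assay of Toxoplasma gondii numbers, read through their beta-galactosidase reporter with a colour substrate. Tested at 10 µM. The record gives no direction; the compounds picked for IC50 retests had high values, so higher reads as fewer parasites. Of about 67,000 compounds tested this way, about 260 (0.38%) reached 50% or more in at least one test.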
TcHisRS: 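Histidine-tRNA ligase, Trypanosoma cruzi CL Brener (UniProt Q4DA54). Enzyme assay of histidyl-tRNA synthetase; the read-out is not stated. Tested at 30 µM. Higher reads as stronger inhibition (inferred: compounds with an IC50 in retests scored well above the rest). About 69,000 compounds were tested under these conditions; 0.045% (about 31) showed 50% or more at least once.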

Values are the deposited “Percent Effect”, in %.
The controls that fix the scale are not given in the record; negative values are as filed.
Compounds were drawn at random from those tested, without regard to their results.
A dash means the value is not listed here; it may have been measured.

structure,Toxoplasma,TcHisRS
CCOc1ccnc(NCc2nc(C)cc(=O)[nH]2)n1,7.268,6.557
COCCn1c(C(=O)NCc2n[nH]c(C)n2)cc2ccccc21,4.307,10.16
Cc1cc(NCc2ccc(N3CCNC(=O)C3)cc2)nc(C)n1,-12.01,9.497
FC(F)(F)c1cccc(OC2CCN(Cc3ccccn3)CC2)c1,3.276,-2.609
CN1CCC(c2cncc(C(=O)NCc3ccc(F)cc3)n2)CC1,4.134,2.632
O=C(c1ccc[nH]1)N1CCC2(CC1)CC(Oc1cccnc1)CO2 (centres unmarked),6.728,7.2
Cc1ccc(NC(=O)CN2CCC(OCC3CCCO3)CC2)c(C)c1 (centres unmarked),5,10
CC1CN(C(=O)c2cscn2)c2ccccc2S1 (centres unmarked),-10.32,2.521
Cc1nc(CN2C(=O)CCC23CCN(c2ncccn2)CC3)cs1,-,3.784
Cc1nc(CN2CCC(CNC(=O)C3(C)CCCC3)CC2)oc1C,-28.93,3.488
CC(C)Oc1ccccc1CNC(=O)N(C)C(C)CS(C)(=O)=O (centres unmarked),-26.19,9.091
O=C(O)C(F)(F)F.[H][C@]12CN(Cc3ccncc3)C(=O)[C@@]1([H])CN(c1ncccn1)C2,-4.144,-
CCN1CCN(C(=O)NCc2cccc(-c3cnn(C)c3)c2)CC1,-,5.747
CN(C(=O)Cn1nc(-c2ccccc2)ccc1=O)C1CCS(=O)(=O)C1 (centres unmarked),-1.232,2.924
N#CCCN(CCN1CCOCC1)Cc1ccc(F)c(Br)c1,-19.78,6.931
[H][C@@]12CCN(C(=O)c3cccnc3OC)C[C@@]1([H])O[C@@H](c1ccncn1)C2,-17.55,-
NC(=O)CN(Cc1ccc(Br)cc1)C(=O)c1ccncc1,6.426,8.287
Cc1ccc(C(=O)N2CC(c3cccnc3)C2)cc1N1CCNC1=O,4.026,10.06
O=C(O)c1cc(-c2ccncc2F)cc(S(=O)(=O)N2CCCCCC2)c1,-19.84,-3.636
O=C(c1ccc[nH]1)N1CCCC2(CCN(c3ccsc3)C2=O)C1 (centres unmarked),-0.2217,0
COC1CCN(CCNC(=O)NCC(C)c2cccc(C)c2)CC1 (centres unmarked),10.28,-2.703
CC(C)(C)C(=O)N1CCC(COCc2ccccc2)C1 (centres unmarked),2.071,1.63
O=C(NCCOc1ncc(Cl)cc1Cl)c1cccnc1,4.227,4.124
CCN(Cc1ccccc1)C(=O)CCN1CC(O)C1,-13.21,36.32
COCCN1CCCCC12CC(=O)N(c1cccc(C#N)c1)C2 (centres unmarked),-,9.945
Cc1occc1C(=O)N1CCOCC2(CCN(Cc3nccs3)C2)C1 (centres unmarked),-,6.695
O=C(NCCNc1ncccn1)N1CCc2ccccc2C1,-4.438,-0.5435
COCCN1CCCC2(CCN(c3nc(C)nc4c3CCC4)C2)C1=O (centres unmarked),13.18,3.279
N#Cc1ccc(N2CCC3(CCC(=O)N3CCN3CCCC3)CC2)nc1,-,7.538
CS(=O)(=O)N1CCOCC2(CCN(C(=O)c3cccnc3)CC2)C1,-,1.653
[H][C@@]12CCCO[C@]1([H])[C@@H](OCC1CCOCC1)CN2C(=O)c1ccc(C)o1,3.163,-
CCS(=O)(=O)CC(C)N(C)C(=O)NCCc1cccc(F)c1F (centres unmarked),7.763,5.263
Cc1ccc(CNC(=O)CCC(=O)NCCC(C)C)o1,3.231,2.646
CC(C)CC(=O)N1C[C@H]2CCCN(S(=O)(=O)c3ccc(Cl)s3)[C@H]2C1,-,6.202
CO[C@H]1CC[C@H]2[C@H]1OCCN2C(=O)CCOc1ccccc1,-,-1.058
CCc1c(C)nn(CCNC(=O)C2CCCN(C(=O)N(C)C)C2)c1C (centres unmarked),1.532,0
O=C(NC[C@H]1O[C@H](Cc2cc(-c3ccccn3)on2)CC[C@@H]1O)C1CC1,0.4926,3.483
CCC(CC)C(=O)N1CCC2(CC1)c1ccccc1[C@@H](OC)[C@@H]2O,32.95,0.8696
CCNC(=O)N1CC[C@H]2CC(=O)N(CC(N)=O)CC[C@H]2C1,-,12.87
CC(C(N)=O)N1CCc2onc(-c3cccc(F)c3)c2C1 (centres unmarked),-2.185,10.12
Cc1ccc(S(=O)(=O)N2C[C@H]3C[C@H](NC(=O)c4ccn(C)n4)[C@H]3C2)cc1,-,-0.5405
C[C@H](NS(C)(=O)=O)C(=O)NCc1cc(-c2ccco2)n(CC(F)(F)F)n1,-16.81,0
Cc1ncoc1C(=O)N1CC[C@@]2(C[C@H](NS(C)(=O)=O)CCO2)C1,4.925,15.69
CNC(=O)N1CCC2(CC1)CN(C)Cc1cc(F)ccc12.Cl,-5.266,-
CCOCC1CN(C(=O)c2ccoc2)Cc2cnn(C)c21 (centres unmarked),13.01,-1.111
O=C(O)C(F)(F)F.O=C1NCC[C@]12CN(CC1CCOCC1)C[C@H]2c1ccccc1,-8.144,-
Cc1ncoc1C(=O)N1C[C@H]2CCC[C@@]2(COCC2CCOCC2)C1,-,-2.762
CCN(CCC1CCN(C(=O)NCc2nncn2CC)CC1)CC1CC1,2.184,-2.817
Cc1ccc(C(=O)N2CCn3cnc(COCC4CC4)c3C2)cn1.O=C(O)C(F)(F)F,3.725,-
CCCc1nnsc1C(=O)N1CCN(CC(O)c2ccco2)CC1 (centres unmarked),-,8.247
CN(Cc1cccs1)C(=O)CN1C(=O)c2cc(Cl)c(Cl)cc2C1=O,-,1.98
CC(C)c1ocnc1C(=O)N1CCC(=O)Nc2cccnc21,-1.609,4.103
COc1ccc(CN2C[C@@H]3CN(CCO)C[C@@H]3C2=O)cc1,-,10.68
COc1cccc2cc(CNC(=O)N3CCC(N4CCCC4)C3)oc12 (centres unmarked),10.72,8.571
Cc1n[nH]c(SCC(=O)N[C@@H](C)C(N)=O)n1,-8.273,0
CCCN1C[C@H]2CC[C@@H]1CN(c1nnc(C(C)C)s1)C2,-,17.82
NC(=O)Nc1cccc(F)c1C(=O)NC1CCCC1,-9.614,1.053
CCOCC1CN(C(=O)c2ccnnc2)Cc2cnn(C)c21 (centres unmarked),1.966,0.9524
Cc1ccc(-c2nc(CN(C)C3CCS(=O)(=O)C3)cs2)o1 (centres unmarked),-55.34,10.92
O=C(O)C(F)(F)F.[H][C@]12CCN(c3ncc(CC)cn3)[C@@]1([H])CCC(=O)N2CC1CCOCC1,1.436,-
CC(C)C1COC2(CCN(Cc3ccco3)CC2)C1 (centres unmarked),-,0
COCC(=O)N1CCN(c2cc(-n3cccc3)nc(C)n2)CC1,-8.891,7.317
Cc1ccc(N2CCCC(N3CCC(CO)CC3)C2=O)cc1 (centres unmarked),-4.225,1.724
O=C1N[C@@H]2CCN(C(=O)C3CC3)[C@@H]2C(=O)N1c1ccccc1,-,0
Cc1nc(C2CCN(C(=O)c3cc(C4CC4)[nH]n3)CC2)no1,-14.97,1.729
CCn1nc(C)cc1C(=O)N1CCOc2cc(C)ccc21,-3.339,1.587
CCOc1ccnc(N2CCN(C(=O)c3cccc(C#N)c3)CC2)n1,-5.712,-2.273
Cc1ccncc1-n1cc(CCO)cn1,-0.4025,7.2
COc1ncccc1CNC(=O)c1cc(F)cc(Br)c1,1.817,-3.59
Cc1cnn(C2CN(CC(=O)Nc3cccnc3)C2)c1,-5.085,0.7576
CCN(c1ccc(C(=O)NCCCN2CCCCC2)cc1)S(=O)(=O)CC,-8.301,1.242
CCOC1CC2(CCN(Cc3cccn3C)CC2)C1.O=C(O)C(F)(F)F,0.2817,-
Cc1ccc2oc(=O)n(CCC(=O)N3CCCC4(CNC(=O)O4)C3)c2c1 (centres unmarked),-5.89,3.704

The first 8 entries again:

| structure | Toxoplasma | TcHisRS |
|---|---|---|
| `CCOc1ccnc(NCc2nc(C)cc(=O)[nH]2)n1` | 7.268 | 6.557 |
| `COCCn1c(C(=O)NCc2n[nH]c(C)n2)cc2ccccc21` | 4.307 | 10.16 |
| `Cc1cc(NCc2ccc(N3CCNC(=O)C3)cc2)nc(C)n1` | -12.01 | 9.497 |
| `FC(F)(F)c1cccc(OC2CCN(Cc3ccccn3)CC2)c1` | 3.276 | -2.609 |
| `CN1CCC(c2cncc(C(=O)NCc3ccc(F)cc3)n2)CC1` | 4.134 | 2.632 |
| `O=C(c1ccc[nH]1)N1CCC2(CC1)CC(Oc1cccnc1)CO2` (centres unmarked) | 6.728 | 7.2 |
| `Cc1ccc(NC(=O)CN2CCC(OCC3CCCO3)CC2)c(C)c1` (centres unmarked) | 5 | 10 |
| `CC1CN(C(=O)c2cscn2)c2ccccc2S1` (centres unmarked) | -10.32 | 2.521 |